Assay results: the supplement of paper PMC11659162
Values joined by “and” are separate entries in the source; they are usually repeats but may differ in a detail not shown here. Equal values may be shown once. This is one part of the list. Single values of this set are uncertain.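 The cells are a human neuroglioma line carrying a green fluorescent autophagy reporter.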

Experiments:
H4 GFP-LC3 [1] = test: cell viability (scaled to control) (fraction of control); higher = more viable cells; details: 5 µM
H4 GFP-LC3 [2] = test: ACBP immunofluorescence intensity (scaled to control) (AU (scaled)); higher = more intracellular ACBP/DBI; details: 5 µM

Structure (SMILES) | cell viability (H4 GFP-LC3 [1]; 6 h) | cell viability (H4 GFP-LC3 [1]; 24 h) | ACBP immunofluorescence intensity (H4 GFP-LC3 [2]; 6 h) | ACBP immunofluorescence intensity (H4 GFP-LC3 [2]; 24 h)
C=C(C)[C@H]1CN[C@H](C(=O)O)[C@H]1CC(=O)O | 1.07 | 1.18 | 0.797 | 0.763
CCCN(CCC)C1Cc2cc(OC)c(OC)cc2C1 | 0.917 | 1.11 | 0.611 | 0.514
CC(C)(C)NCC(O)c1cc(Cl)c(N)c(Cl)c1 (stereo not drawn) | 0.946 | 0.744 | 0.787 | 0.4
CC[C@H](C)[C@H](NC(=O)[C@H](CCCN=C(N)N)NC(=O)[C@H](CCCN=C(N)N)NC(=O)[C@H](CC(C)C)NC(=O)[C@H](Cc1ccccc1)NC(=O)CNC(=O)CNC(=O)[C@@H](N)Cc1ccc(O)cc1)C(=O)N[C@@H](CCCN=C(N)N)C(=O)N1CCC[C@H]1C(=O)N[C@@H](CCCCN)C(=O)N[C@@H](CC(C)C)C(=O)N[C@@H](CCCCN)C(=O)O | 1.05 | 0.956 | 0.765 | 0.667
CCC(C)C(NC(=O)C1CCCN1C(=O)C(CCC(=O)O)NC(=O)C(NC(=O)C(Cc1ccccc1)NC(=O)C1CCCN1C(=O)C(N)Cc1ccc(O)cc1)C(C)C)C(=O)O (stereo not drawn) | 1.14 | 1.22 | 0.598 | 0.917
N[C@H](C(=O)O)c1cc(O)no1 | 1.01 | 1.3 | 0.907 | 0.665
CNCCc1cnc[nH]1 | 1.09 | 1.06 | 0.898 | 0.753
O=C1C[C@@H]2OCC=C3CN4CC[C@]56c7ccccc7N1[C@H]5[C@H]2[C@H]3C[C@H]46 | 0.869 | 1.18 | 0.989 | 0.784
CP(=O)(O)CCCN | 0.913 | 1.08 | 0.945 | 0.936
CC(C)C[C@H](NC(=O)[C@H](Cc1ccccc1)NC(=O)CNC(=O)CNC(=O)[C@@H](N)Cc1ccc(O)cc1)C(N)=O | 1.2 and 1.11 | 1.02 and 0.8 | 0.75 and 0.497 | 0.853 and 0.469
C=C(C)CN1CC[C@]23c4c5ccc(O)c4O[C@H]2c2[nH]c4ccccc4c2C[C@@]3(O)[C@H]1C5 | 0.991 | 1.37 | 0.818 | 0.869
O=C(CCCN1CCC2(CC1)C(=O)NCN2c1ccccc1)c1ccc(F)cc1 | 0.762 | 0.806 | 0.91 | 0.556
NCCc1c[nH]c2ccccc12 | 1.23 | 0.974 | 0.38 | 0.659
Oc1ccc2c3c1O[C@H]1c4[nH]c5ccccc5c4C[C@@]4(O)[C@@H](C2)N(CC2CC2)CC[C@]314 | 0.982 | 1.07 | 0.813 | 0.675
COc1ccc(CCN2CCC(Nc3nc4ccccc4n3Cc3ccc(F)cc3)CC2)cc1 | 0.89 | 0.78 | 0.987 | 0.837
Cn1cc(C(=O)C(=O)NC2CN3CCC2CC3)c2ccccc21 (stereo not drawn) | 0.707 | 0.798 | 0.909 | 0.546
CC(C)[C@H]1C(=O)N2CCC[C@H]2[C@]2(O)O[C@](NC(=O)[C@@H]3C=C4c5cccc6[nH]cc(c56)C[C@H]4N(C)C3)(C(C)C)C(=O)N12 | 0.788 | 1.15 | 0.887 | 0.633
CN1[C@@H]2CC[C@H]1C[C@@H](OC(=O)c1cc(Cl)cc(Cl)c1)C2 | 0.884 | 1.09 | 0.955 | 0.826
CC(C)NC1CCn2c(=O)[nH]c3cccc(c32)C1O (stereo not drawn) | 0.918 | 0.882 | 0.527 | 0.459
C#CCOC(=O)C1=CCCN(C)C1 | 1.06 | 1.29 | 0.913 | 0.776
O=C1/C(=C/c2ccccc2)C[C@@]2(O)[C@H]3Cc4ccc(O)c5c4[C@@]2(CCN3CC2CC2)[C@H]1O5 | 1.1 | 1.22 | 0.897 | 0.792

Record cards (already shown). Values in the order: cell viability (H4 GFP-LC3 [1]; 6 h)	cell viability (H4 GFP-LC3 [1]; 24 h)	ACBP immunofluorescence intensity (H4 GFP-LC3 [2]; 6 h)	ACBP immunofluorescence intensity (H4 GFP-LC3 [2]; 24 h)
NCCc1c[nH]c2ccccc12 is listed as 1.23	0.974	0.38	0.659
CCCN(CCC)C1Cc2cc(OC)c(OC)cc2C1 is listed as 0.917	1.11	0.611	0.514
CN1[C@@H]2CC[C@H]1C[C@@H](OC(=O)c1cc(Cl)cc(Cl)c1)C2 is listed as 0.884	1.09	0.955	0.826

(further entries)

Structure (SMILES) | cell viability (H4 GFP-LC3 [1]; 6 h) | cell viability (H4 GFP-LC3 [1]; 24 h) | ACBP immunofluorescence intensity (H4 GFP-LC3 [2]; 6 h) | ACBP immunofluorescence intensity (H4 GFP-LC3 [2]; 24 h)
CN1CC(CNC(=O)OCc2ccccc2)CC2c3cccc4c3c(cn4C)CC21 (stereo not drawn) | 0.741 | 1.02 | 0.98 | 0.754
c1ccc2c(c1)OCC(C1=NCCN1)O2 (stereo not drawn) | 0.644 | 0.79 | 0.868 | 0.501
NCC(CC(=O)O)c1ccc(Cl)cc1 (racemic) | 0.913 | 1.07 | 0.956 | 0.536
CN1C(=O)CCS(=O)(=O)C1c1ccc(Cl)cc1 (stereo not drawn) | 0.767 | 0.929 | 0.983 | 0.439
CC(C)(Cc1c[nH]c2ccc(Cl)cc12)NCCOc1ccccc1OCC1CC1 | 0.896 | 0.777 | 0.948 | 0.73
C/C=C1/C[N+]2(C)CCC34C(=C(C=O)[C@H]1C[C@@H]32)Nc1ccccc14 (stereo partly drawn) | 0.883 | 1.01 | 0.997 | 0.429
CC[N+](CC)(CCCNC1=CC(=O)C(NCCC[N+](CC)(CC)Cc2ccccc2)=CC1=O)Cc1ccccc1 | 1 | 1.12 | 0.851 | 0.544
CSCC[C@H](NC(=O)[C@H](Cc1ccccc1)NC(=O)CNC(=O)CNC(=O)[C@@H](N)Cc1ccc(O)cc1)C(N)=O | 0.964 | 0.945 | 0.482 | 0.624
C[N+]1(C)CCN(c2ccccc2)CC1 | 1.06 | 1.04 | 0.918 | 0.633
N=C(NCc1ccc(Cl)cc1)SCCCc1c[nH]cn1 | 1.12 | 0.92 | 0.917 | 0.437
O=C1NCN(c2ccccc2)C12CCN(CC1COc3ccccc3O1)CC2 (stereo not drawn) | 0.861 | 1.03 | 0.838 | 0.489
C=CCN1C[C@H](C(=O)N(CCCN(C)C)C(=O)NCC)C[C@@H]2c3cccc4[nH]cc(c34)C[C@H]21 | 0.889 | 1.16 | 0.974 | 0.816
Cc1nnc2ccc(-c3cccc(C(F)(F)F)c3)nn12 | 0.914 | 1.16 | 0.843 | 0.4
NCCc1ccc(O)cc1 | 1.08 | 0.88 | 0.544 | 0.732
C[C@]12CC[C@H](O)CC1=CC[C@@H]1[C@@H]2CC[C@]2(C)C(=O)CC[C@@H]12 | 1.22 | 0.919 | 0.775 | 0.905
CCCC(=O)OCC[N+](C)(C)C | 0.902 | 1.31 | 0.997 | 0.909
C(=C\c1ccccc1)/CN1CCN(CCOC(c2ccccc2)c2ccccc2)CC1 | 0.952 | 1.31 | 0.871 | 0.553
CC12NC(Cc3ccccc31)c1ccccc12 (single isomer, unassigned; (+)) | 0.991 | 1.16 | 0.757 | 0.343
Cc1cccc(C)c1NC1=NCCCS1 | 0.639 | 0.822 | 0.919 | 0.455
CN(C(=O)Cc1ccc(Cl)c(Cl)c1)C(CN1CCCC1)c1cccc(OCC(=O)O)c1 (stereo not drawn) | 1.09 | 1.09 | 0.865 | 0.768
c1ccc2nc(N3CCNCC3)ccc2c1 | 0.85 | 1.09 | 0.895 | 0.605
